Read-outs that look alike come from different tables or passages of the source.
Tests used:
[1] = Body weight and splenocyte counts 7 days after trauma (NS-398 twice a day over 7 days); type: in vivo, BALB/c mice
Description: Animals, Experimental Protocol, NS-398 preparation were as described in Example I. Macrophages were prepared as described initially under “Macrophage Preparation ” in Example I. After lysis of erythrocytes with ammonium chloride solution and centrifugation as described in Example I, macrophages were further prepared by resuspending the pellet in RPMI-1640 (Gibco BRL, Life Technologies Inc) containing 2 mmol/L L-glutamine, 100 U/mL penicillin, 100 μg/mL streptomycin, 0.25 μg/mL amphotericin B, and 10% heat-inactivated fetal calf serum (Gibco BRL, Life Technologies Inc), counted via hemocytometer and diluted to a final concentration of 5×10^6 cells/mL, and plated in 96 well plates in a volume of 0.2 mL per well. After allowing macrophages to adhere for 2 hours, the remaining cells were suctioned off and the macrophages were cultured in the +/−1 ng LPS 055:B5 (Sigma, St. Louis, Mo.) per mL at 37° C. in 5% carbon dioxide incubators. Supernatants were harvested at 24 hours and stored at −70° C. until analysis for batch enzyme-linked immunosorbent assay processing to determine prostaglandin and cytokine production.
Body weight and splenocyte recovery after injury±NS-398 were recorded.
BALB/C mice (n=8/group) were given 10mg/kg NS398 intraperitoneally BID for 7 days, starting immediately after sham injury or trauma (femur fracture+40% hemorrhage). Four groups, sham+placebo (C); sham+NS398 (CN); trauma+placebo (T); or trauma+NS398 (TN) were studied. On day 7 after trauma, mice were sacrificed and splenic macrophages evaluated for PGE2, TNF-α and NO production (via Student's t-test). In a separate study, mice (n=10-11/group) were traumatized and given NS398 for 7 days. On day 7, cecal ligation and puncture was performed, and mice evaluated for survival over 3 weeks (via Log-rank test).

[2] = Control (sham) + NS-398, 7 days after injury
[3] = Trauma + NS-398, 7 days after injury

SMILES: CS(=O)(=O)Nc1ccc([N+](=O)[O-])cc1OC1CCCCC1 [NS-398, N-(2-cyclohexyloxy-4-nitrophenyl)methanesulfonamide]
- Spleen wt [2]: 87.3 ± 3.2 mg
- Total Splenocytes/Mouse [2]: 8.8 ± 0.6 × 10^6
- Spleen wt [3]: 125.3 ± 5.4 mg
- Total Splenocytes/Mouse [3]: 10.9 ± 0.8 × 10^6
- Total Splenoctyes/mouse ([1]; Control + NS-398, day 7): 8.8 ± 1.6 × 10^6
- Total Splenoctyes/mouse ([1]; Trauma + NS-398, day 7): 10.9 ± 2.3 × 10^6
- differences in splenocyte counts ([1]; control versus trauma±NS-398 mice): no differences

Reference: US20020006915A1, “Use of COX-2 inhibitors to treat sepsis, complications thereof, and EP receptor modulation” (priority 2000, published 2002)
